Experimental findings from publication PMC8513853 are described below.

Amino acid sequences for entries named in this document (tags omitted).
UniProt P0DTC6: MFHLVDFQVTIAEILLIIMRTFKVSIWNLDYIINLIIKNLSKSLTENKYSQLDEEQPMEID
UniProt Q7Z434: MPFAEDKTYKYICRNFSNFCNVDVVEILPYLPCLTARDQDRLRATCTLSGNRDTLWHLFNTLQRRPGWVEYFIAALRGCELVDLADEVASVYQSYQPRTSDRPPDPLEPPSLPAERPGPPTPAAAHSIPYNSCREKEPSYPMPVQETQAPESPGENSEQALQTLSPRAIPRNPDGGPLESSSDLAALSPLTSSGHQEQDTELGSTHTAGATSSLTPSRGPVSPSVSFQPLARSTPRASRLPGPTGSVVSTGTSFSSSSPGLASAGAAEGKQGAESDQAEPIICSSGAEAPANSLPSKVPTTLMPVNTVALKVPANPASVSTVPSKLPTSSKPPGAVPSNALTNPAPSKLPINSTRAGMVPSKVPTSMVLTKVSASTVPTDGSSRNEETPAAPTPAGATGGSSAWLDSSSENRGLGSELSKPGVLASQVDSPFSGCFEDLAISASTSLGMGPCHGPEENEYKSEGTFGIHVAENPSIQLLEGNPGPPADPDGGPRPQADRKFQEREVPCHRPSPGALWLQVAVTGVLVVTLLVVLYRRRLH
UniProt O60318: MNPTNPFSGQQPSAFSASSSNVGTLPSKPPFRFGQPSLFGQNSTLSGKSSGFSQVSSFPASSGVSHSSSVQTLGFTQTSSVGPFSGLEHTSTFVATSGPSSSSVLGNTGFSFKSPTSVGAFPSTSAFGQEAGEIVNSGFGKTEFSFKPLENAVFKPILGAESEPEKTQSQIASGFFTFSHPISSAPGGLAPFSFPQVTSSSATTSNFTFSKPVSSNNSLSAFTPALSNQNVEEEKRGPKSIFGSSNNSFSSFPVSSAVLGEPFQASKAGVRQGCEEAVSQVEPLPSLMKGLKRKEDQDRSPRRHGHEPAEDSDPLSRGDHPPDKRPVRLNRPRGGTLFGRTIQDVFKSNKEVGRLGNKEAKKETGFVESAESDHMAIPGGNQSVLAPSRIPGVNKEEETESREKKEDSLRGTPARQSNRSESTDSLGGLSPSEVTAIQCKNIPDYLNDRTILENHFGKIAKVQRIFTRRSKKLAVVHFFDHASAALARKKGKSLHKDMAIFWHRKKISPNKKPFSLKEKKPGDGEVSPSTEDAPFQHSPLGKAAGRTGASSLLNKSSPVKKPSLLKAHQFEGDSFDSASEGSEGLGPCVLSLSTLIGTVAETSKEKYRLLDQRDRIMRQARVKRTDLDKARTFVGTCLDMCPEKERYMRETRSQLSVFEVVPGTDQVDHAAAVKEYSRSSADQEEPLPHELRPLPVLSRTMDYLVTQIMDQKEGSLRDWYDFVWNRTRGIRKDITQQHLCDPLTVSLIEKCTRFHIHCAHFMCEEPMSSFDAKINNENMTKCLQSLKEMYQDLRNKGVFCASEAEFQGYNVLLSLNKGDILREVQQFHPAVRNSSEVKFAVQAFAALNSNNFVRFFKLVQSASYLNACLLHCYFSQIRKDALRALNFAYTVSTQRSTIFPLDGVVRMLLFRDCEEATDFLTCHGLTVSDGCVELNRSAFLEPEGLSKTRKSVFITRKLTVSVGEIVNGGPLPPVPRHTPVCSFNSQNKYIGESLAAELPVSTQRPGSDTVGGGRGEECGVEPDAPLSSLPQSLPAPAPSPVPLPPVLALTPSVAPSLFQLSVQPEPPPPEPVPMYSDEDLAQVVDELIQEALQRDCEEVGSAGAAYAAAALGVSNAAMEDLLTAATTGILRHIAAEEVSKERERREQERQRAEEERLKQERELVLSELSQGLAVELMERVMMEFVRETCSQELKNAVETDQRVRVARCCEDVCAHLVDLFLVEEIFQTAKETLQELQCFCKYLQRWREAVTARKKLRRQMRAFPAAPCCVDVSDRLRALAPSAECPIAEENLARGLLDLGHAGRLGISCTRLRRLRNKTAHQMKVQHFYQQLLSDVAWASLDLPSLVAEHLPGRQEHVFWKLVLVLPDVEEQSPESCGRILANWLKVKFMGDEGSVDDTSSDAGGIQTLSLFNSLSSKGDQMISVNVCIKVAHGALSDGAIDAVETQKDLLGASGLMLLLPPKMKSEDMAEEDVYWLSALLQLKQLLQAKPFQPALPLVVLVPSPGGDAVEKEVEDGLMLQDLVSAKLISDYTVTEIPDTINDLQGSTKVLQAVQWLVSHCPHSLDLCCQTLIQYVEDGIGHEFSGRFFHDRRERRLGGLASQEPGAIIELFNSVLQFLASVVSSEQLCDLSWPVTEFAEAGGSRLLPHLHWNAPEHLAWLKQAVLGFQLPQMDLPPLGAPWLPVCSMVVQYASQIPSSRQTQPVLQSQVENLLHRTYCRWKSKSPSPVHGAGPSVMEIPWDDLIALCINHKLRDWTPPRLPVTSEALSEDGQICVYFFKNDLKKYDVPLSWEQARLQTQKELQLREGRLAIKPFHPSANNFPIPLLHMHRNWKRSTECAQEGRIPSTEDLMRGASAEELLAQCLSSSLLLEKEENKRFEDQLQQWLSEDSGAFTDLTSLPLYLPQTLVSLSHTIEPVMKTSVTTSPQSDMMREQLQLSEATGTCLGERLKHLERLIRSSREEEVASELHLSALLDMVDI
UniProt Q9NXV6: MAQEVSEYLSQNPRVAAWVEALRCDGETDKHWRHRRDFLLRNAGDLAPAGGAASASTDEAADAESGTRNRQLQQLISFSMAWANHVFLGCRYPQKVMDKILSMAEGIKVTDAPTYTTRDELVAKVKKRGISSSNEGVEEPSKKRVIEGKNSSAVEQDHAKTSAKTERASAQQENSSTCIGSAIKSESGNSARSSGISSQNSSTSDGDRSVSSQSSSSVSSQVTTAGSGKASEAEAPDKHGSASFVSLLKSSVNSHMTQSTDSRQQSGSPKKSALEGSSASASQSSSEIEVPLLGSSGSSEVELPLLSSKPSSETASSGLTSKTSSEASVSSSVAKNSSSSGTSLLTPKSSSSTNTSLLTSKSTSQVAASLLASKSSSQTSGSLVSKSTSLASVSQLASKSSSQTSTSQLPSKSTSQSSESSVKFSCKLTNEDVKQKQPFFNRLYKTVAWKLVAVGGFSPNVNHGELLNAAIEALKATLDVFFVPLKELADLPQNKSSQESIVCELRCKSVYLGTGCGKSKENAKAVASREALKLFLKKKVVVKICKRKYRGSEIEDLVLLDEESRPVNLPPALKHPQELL
UniProt P78344: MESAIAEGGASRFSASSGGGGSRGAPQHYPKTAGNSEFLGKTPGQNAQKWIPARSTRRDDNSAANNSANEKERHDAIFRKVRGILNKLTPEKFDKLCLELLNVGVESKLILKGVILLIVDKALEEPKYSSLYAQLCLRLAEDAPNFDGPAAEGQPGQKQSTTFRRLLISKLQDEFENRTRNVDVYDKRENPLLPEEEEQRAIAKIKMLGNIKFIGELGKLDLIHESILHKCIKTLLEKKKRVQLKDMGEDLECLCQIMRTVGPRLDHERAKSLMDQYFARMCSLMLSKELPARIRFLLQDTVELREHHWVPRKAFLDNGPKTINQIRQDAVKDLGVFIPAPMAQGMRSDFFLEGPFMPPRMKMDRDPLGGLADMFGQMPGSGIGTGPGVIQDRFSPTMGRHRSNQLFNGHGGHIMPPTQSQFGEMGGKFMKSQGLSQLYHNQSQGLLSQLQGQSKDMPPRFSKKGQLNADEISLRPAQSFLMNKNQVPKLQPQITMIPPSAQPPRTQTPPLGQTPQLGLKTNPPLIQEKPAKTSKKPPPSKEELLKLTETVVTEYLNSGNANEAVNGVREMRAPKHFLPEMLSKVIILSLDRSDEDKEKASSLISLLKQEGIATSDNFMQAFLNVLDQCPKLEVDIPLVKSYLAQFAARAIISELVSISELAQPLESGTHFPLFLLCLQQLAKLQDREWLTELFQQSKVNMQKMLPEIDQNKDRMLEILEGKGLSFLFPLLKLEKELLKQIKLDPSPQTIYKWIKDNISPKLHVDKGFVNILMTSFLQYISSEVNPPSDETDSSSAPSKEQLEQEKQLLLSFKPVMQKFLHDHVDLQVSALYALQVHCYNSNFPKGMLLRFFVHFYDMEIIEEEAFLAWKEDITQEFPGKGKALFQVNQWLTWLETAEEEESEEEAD

What all share (assay): proximity labelling
The target of test [1] is SARS-CoV-2 ORF6, HA-BASU fusion (SARS-CoV-2) (UniProt P0DTC6).
Test [2] has as its target SARS-CoV-2 NSP5, HA-BASU fusion (SARS-CoV-2) (UniProt P0DTD1).
Test [3] deals with SARS-CoV-2 NSP1, HA-BASU fusion (SARS-CoV-2) (UniProt P0DTD1).

These are yes or no findings as the source states them, for the method shown. Binding seen in cells or lysates may run through a third protein. These calls come from enrichment with a bait or labelling near it, and not all partners need be listed.

Consider “Mitochondrial Activation of Viral Signaling (MAVS) (from UniProt Q7Z434 1-540)”, for which, in test [1], the binding entry is “binds”. The same measure, in the same setting: the same measure for MCM3AP (from UniProt O60318 1-1980): “binds”.

CDKN2AIP (from UniProt Q9NXV6 1-580): the binding entry in test [2] is “binds”. As for EIF3B (from UniProt P55884 1-814), in test [3], the binding result was “binds”. Take EIF4G2 (from UniProt P78344 1-907): the binding result in test [3] was “binds”.
